The supplement of paper PMC10849652
This is one part of the list.

Protein sequences, listed by entry. Tags and fused reporters are not part of them. Lines headed by an entry give the natural chain unless they say otherwise; changes in a name come on top.
UniProt O75874, whole entry, looked up: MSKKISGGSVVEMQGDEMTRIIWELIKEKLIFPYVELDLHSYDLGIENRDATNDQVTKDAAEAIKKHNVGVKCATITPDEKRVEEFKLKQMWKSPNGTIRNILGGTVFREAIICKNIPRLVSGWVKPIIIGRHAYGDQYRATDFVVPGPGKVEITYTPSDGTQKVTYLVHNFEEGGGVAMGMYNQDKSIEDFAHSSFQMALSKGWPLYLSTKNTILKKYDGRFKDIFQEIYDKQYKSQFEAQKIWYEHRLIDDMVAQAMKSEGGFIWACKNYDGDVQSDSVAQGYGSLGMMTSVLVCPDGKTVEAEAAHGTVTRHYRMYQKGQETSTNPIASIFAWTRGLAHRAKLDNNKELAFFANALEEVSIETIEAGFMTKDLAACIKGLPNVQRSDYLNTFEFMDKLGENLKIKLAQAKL
UniProt Q9NVM9, whole entry, looked up: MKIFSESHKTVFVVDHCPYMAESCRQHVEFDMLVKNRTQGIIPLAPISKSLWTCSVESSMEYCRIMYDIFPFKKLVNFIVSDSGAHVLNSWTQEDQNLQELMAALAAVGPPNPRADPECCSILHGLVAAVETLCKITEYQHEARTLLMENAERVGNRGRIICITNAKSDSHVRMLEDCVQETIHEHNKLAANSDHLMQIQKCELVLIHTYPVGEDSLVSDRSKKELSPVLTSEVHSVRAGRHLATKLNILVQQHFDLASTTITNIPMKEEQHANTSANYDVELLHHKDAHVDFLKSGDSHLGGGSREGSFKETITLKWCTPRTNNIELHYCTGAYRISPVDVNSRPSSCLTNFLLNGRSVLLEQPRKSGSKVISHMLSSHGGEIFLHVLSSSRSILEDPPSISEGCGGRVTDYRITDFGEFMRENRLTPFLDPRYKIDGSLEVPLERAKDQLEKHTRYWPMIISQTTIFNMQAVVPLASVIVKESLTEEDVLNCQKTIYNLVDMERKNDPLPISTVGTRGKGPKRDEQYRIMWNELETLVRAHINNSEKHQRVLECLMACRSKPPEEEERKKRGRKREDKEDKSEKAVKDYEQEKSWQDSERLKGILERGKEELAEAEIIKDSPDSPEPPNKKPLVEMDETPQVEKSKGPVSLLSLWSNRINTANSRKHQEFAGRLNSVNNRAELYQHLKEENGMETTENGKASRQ
UniProt P38570: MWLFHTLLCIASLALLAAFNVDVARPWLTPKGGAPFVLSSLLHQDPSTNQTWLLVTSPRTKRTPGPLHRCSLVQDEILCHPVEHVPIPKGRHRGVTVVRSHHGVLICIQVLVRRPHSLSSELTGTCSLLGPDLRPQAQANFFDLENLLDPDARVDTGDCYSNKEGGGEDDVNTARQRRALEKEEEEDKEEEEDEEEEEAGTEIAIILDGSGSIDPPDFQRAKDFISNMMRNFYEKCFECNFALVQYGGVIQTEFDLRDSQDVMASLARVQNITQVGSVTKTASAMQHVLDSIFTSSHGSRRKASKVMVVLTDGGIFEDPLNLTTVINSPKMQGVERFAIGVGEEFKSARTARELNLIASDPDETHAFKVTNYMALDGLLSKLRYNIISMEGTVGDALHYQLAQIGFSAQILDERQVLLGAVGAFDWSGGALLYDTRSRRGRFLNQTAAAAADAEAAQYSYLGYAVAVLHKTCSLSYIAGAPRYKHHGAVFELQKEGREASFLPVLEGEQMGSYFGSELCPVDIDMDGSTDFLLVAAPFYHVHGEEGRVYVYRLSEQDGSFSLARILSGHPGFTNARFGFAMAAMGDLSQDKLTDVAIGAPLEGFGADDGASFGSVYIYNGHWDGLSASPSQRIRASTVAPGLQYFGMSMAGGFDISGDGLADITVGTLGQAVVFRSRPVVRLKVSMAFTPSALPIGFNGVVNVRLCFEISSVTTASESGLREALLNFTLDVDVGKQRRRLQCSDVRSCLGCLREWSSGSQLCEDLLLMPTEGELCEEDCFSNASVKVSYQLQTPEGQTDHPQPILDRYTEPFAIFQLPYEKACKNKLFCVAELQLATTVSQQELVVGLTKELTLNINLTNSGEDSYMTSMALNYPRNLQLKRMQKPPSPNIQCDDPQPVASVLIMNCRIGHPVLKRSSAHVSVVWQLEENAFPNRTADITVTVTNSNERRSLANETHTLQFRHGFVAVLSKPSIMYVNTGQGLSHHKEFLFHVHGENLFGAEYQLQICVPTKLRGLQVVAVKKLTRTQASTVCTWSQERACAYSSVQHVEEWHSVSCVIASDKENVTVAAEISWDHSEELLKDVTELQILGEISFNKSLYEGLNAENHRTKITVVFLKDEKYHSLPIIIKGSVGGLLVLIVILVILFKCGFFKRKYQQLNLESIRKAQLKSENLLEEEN
UniProt Q13422: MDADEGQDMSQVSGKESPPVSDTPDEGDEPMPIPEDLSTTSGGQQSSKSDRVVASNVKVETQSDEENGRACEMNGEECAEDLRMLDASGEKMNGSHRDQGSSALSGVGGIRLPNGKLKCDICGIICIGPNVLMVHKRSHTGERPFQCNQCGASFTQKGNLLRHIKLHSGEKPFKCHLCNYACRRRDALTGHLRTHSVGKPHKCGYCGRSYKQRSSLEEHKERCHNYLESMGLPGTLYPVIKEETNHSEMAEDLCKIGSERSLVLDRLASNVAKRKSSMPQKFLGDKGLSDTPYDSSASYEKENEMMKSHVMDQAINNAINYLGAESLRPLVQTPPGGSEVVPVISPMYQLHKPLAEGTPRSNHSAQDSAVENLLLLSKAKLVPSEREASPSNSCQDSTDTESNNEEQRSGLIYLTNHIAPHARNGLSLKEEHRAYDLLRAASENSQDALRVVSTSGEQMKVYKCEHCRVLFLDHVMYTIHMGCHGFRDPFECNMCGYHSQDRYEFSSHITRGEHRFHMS
UniProt P11717, whole entry, looked up: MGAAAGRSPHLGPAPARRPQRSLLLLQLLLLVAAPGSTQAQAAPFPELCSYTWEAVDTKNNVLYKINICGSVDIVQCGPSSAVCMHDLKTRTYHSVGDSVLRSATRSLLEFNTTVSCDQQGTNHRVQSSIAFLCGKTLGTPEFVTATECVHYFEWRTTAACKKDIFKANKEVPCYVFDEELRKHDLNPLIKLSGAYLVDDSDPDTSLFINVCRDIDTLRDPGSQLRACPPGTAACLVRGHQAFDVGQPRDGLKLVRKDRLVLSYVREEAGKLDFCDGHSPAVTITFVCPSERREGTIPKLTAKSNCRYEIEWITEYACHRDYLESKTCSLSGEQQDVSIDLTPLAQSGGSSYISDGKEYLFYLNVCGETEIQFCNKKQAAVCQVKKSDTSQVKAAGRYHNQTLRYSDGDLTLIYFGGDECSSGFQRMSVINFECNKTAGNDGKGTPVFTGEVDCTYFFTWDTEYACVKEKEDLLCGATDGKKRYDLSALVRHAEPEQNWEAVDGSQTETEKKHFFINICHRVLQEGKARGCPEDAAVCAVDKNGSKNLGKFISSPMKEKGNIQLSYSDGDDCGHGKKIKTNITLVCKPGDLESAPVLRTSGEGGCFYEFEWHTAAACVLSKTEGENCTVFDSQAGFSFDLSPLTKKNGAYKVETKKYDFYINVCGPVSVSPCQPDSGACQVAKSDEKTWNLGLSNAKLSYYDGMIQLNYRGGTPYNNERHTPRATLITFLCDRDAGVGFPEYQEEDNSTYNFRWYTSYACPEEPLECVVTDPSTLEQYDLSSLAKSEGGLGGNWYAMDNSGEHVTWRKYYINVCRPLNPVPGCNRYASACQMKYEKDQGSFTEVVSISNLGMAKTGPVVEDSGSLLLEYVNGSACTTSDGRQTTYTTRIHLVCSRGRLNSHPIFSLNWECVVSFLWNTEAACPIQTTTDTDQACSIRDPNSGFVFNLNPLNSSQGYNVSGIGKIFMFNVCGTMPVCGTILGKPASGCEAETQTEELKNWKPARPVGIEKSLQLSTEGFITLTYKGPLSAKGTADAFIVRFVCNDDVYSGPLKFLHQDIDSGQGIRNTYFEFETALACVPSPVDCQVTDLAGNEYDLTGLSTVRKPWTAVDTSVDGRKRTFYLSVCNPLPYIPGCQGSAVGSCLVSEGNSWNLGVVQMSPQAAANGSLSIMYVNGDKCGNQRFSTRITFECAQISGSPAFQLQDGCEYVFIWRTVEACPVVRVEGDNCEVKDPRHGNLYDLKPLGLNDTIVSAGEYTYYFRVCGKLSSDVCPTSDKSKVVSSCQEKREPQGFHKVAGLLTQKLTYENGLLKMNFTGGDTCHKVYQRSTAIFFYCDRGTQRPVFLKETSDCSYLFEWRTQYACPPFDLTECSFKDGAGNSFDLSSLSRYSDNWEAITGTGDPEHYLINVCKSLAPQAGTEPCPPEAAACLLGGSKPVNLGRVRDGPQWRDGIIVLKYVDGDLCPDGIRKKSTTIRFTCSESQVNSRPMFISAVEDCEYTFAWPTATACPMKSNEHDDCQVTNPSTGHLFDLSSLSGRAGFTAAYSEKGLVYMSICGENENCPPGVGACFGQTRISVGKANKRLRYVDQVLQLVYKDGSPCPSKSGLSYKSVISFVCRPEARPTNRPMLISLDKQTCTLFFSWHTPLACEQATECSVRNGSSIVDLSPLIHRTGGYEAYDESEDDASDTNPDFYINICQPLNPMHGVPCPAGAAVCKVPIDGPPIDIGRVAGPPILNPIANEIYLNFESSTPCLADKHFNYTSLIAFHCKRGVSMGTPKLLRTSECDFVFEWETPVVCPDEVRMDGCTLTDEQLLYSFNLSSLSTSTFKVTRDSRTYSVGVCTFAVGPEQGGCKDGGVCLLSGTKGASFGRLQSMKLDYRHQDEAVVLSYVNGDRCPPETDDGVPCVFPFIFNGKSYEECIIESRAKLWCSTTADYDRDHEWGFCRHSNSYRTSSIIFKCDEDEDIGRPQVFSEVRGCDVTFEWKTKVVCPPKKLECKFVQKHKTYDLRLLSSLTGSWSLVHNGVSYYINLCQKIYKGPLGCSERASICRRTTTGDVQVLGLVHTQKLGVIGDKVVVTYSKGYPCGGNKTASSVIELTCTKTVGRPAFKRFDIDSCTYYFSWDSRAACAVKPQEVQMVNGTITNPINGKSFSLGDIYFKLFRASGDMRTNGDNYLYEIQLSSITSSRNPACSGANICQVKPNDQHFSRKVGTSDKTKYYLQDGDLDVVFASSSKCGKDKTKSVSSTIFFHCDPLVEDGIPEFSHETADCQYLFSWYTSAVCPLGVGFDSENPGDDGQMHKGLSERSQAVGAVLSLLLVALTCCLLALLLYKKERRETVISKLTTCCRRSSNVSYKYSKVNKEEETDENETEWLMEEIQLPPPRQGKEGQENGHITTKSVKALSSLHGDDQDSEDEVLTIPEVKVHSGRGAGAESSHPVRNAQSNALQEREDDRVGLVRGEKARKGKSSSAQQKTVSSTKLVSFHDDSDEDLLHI
UniProt P51553: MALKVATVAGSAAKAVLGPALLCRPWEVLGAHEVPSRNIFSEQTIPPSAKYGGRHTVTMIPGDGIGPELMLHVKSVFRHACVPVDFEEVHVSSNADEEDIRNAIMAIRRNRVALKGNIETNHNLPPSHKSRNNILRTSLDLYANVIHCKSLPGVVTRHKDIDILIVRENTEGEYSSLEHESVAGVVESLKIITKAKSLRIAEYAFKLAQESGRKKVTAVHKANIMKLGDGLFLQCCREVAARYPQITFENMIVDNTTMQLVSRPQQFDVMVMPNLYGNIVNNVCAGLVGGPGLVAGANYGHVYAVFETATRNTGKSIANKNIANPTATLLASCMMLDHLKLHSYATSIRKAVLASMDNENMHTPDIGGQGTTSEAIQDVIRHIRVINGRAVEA
UniProt Q70UQ0: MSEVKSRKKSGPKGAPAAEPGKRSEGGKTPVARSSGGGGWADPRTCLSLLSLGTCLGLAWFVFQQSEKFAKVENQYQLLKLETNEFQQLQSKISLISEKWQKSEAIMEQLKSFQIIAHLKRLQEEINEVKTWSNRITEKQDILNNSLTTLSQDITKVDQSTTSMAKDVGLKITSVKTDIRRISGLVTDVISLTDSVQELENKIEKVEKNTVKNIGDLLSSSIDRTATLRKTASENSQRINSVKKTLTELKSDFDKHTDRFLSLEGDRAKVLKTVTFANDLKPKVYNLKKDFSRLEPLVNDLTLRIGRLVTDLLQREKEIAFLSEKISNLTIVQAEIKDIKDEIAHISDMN
UniProt Q96LU5: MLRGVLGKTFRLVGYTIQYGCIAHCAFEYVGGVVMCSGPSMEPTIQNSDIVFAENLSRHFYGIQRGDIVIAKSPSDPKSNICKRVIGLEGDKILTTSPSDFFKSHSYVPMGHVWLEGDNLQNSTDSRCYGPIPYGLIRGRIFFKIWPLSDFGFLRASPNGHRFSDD
UniProt P50213: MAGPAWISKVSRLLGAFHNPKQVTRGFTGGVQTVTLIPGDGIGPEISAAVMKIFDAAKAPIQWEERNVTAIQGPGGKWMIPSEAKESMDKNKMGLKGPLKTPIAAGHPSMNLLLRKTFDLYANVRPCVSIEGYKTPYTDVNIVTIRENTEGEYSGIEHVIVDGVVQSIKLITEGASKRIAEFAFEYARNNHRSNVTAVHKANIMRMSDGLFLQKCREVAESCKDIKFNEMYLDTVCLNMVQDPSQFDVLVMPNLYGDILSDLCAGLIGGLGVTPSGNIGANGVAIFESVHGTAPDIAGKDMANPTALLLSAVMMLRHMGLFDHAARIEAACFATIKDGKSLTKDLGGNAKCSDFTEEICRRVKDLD

Columns and labels:
Test in all cases: log2 fold change, soluble protein after heating vs DMSO (PISA); higher = thermal stabilisation; K562 cells, 10 uM, 30 min; active = over 0.2 and 3.5 SD of the protein, either way, in both replicates (recomputed)
[1] = compound: CC1=C(C=C(C=C1)NC(=O)C2=CC(=CC=C2)C(C)(C)C#N)NC3=CC4=C(C=C3)N=CN(C4=O)C
Outline: (§1)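 K562 cells at 2×10^6 cells/mL were exposed to 10 μM compound for 30 min, then aliquots were heated for 3 min across 48°C-58°C, pooled, and extracted in PBS containing 0.5% NP-40 at 4°C. The supernatant after 21,000xg for 90 min was taken as soluble protein and measured by TMTpro 16plex LC-MS/MS with channel sums equalised. Thermal stability is reported relative to control samples, with values from duplicates. Fold changes are given on a log2 scale.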

[2] = compound: CC1=C(C=C(C=C1)NC(=O)C2=CC(=CC=C2)N(C)C)NC(=O)C3=CC=C(C=C3)O
Outline: as §1

[3] = compound: CC1=CC=C(C=C1)SC2=C3C=C(SC3=CN=C2)C(=O)N
Outline: as §1

[4] = compound: CC1=NC(=CC=C1)C2=C(N=C(N2)C(C)(C)C)C3=CC4=NC=CN=C4C=C3
Outline: as §1

Nexturastat A = compound: CCCCN(Cc1ccc(C(=O)NO)cc1)C(=O)Nc1ccccc1 [Nexturastat A]
Outline: as §1

vemurafenib = compound: CCCS(=O)(=O)Nc1ccc(F)c(C(=O)c2c[nH]c3ncc(-c4ccc(Cl)cc4)cc23)c1F [vemurafenib]
Outline: as §1

[5] = compound: CCCS(=O)(=O)Nc1ccc(F)c(C(=O)c2c[nH]c3ncc(Cl)cc23)c1F
Outline: as §1

[6] = compound: CCCc1cc(C)[nH]c(=O)c1CNC(=O)c1cc(-c2ccnc(N3CCN(C)CC3)c2)cc2c1cnn2C(C)C
Outline: as §1

givinostat = compound: CCN(CC)Cc1ccc2cc(COC(=O)Nc3ccc(C(=O)NO)cc3)ccc2c1 [givinostat]
Outline: as §1

barasertib = compound: CCN(CCCOc1ccc2c(Nc3cc(CC(=O)Nc4cccc(F)c4)[nH]n3)ncnc2c1)CCOP(=O)(O)O [barasertib]
Outline: as §1

Measured: log2 fold change

IRF2BPL (UniProt Q9H1B7)
inactive: [1] 0.013 | [2] -0.006 | [3] 0.015 | [4] 0.068 | Nexturastat A 0.038 | vemurafenib 0.014 | [5] 0.049 | [6] 0.008 | givinostat 0.05 | barasertib -0.044

IPO5 isoform 3 (UniProt O00410)
inactive: [1] 0.026 | [2] 0.019 | [3] 0.06 | [4] 0.029 | Nexturastat A -0.122 | vemurafenib 0.059 | [5] 0.092 | [6] -0.029 | givinostat -0.08 | barasertib -0.009

ITGAV (UniProt P06756)
inactive: [1] -0.046 | [2] -0.018 | [3] -0.027 | [4] 0.01 | Nexturastat A -0.002 | vemurafenib -0.036 | [5] -0.009 | [6] 0 | givinostat -0.009 | barasertib -0.005

IMPDH2 (UniProt P12268)
inactive: [1] -0.023 | [2] 0.025 | [3] -0.04 | [4] -0.02 | Nexturastat A 0.023 | vemurafenib -0.01 | [5] -0.046 | [6] 0.02 | givinostat 0.015 | barasertib -0.059

IDH1 (UniProt O75874)
inactive: [1] 0 | [2] 0.004 | [3] -0.014 | [4] 0.018 | Nexturastat A -0.06 | vemurafenib -0.012 | [5] -0.033 | [6] -0.049 | givinostat -0.012 | barasertib -0.003

ILF3 isoform 7 (UniProt Q12906)
inactive: [1] 0.028 | [2] -0.068 | [3] -0.087 | [4] -0.036 | Nexturastat A 0.146 | vemurafenib -0.036 | [5] -0.1 | [6] 0.102 | givinostat -0.017 | barasertib -0.125

INTS13 (UniProt Q9NVM9)
inactive: [1] -0.005 | [2] 0.022 | [3] 0.009 | [4] 0.063 | Nexturastat A -0.025 | vemurafenib 0.06 | [5] 0.015 | [6] 0.056 | givinostat 0.019 | barasertib 0.028

IFT80 isoform 3 (UniProt Q9P2H3)
inactive: [1] -0.023 | [2] 0.038 | [3] 0.004 | [4] 0.005 | Nexturastat A -0.021 | vemurafenib -0.042 | [5] 0.039 | [6] -0.013 | givinostat -0.104 | barasertib -0.004

ITGAE (UniProt P38570)
inactive: [1] -0.377 | [2] 0.007 | [3] -0.128 | [4] -0.362 | Nexturastat A 0.33 | vemurafenib -0.001 | [5] -0.082 | [6] -0.092 | givinostat 0.342 | barasertib 0.009

IKZF1 (UniProt Q13422)
inactive: [1] 0.144 | [2] 0.036 | [3] -0.007 | [4] 0.041 | Nexturastat A -0.006 | vemurafenib 0.044 | [5] 0.034 | [6] 0.177 | givinostat -0.018 | barasertib -0.052

IFI35 isoform 2 (UniProt P80217)
inactive: [1] 0.001 | [2] -0.022 | [3] 0 | [4] 0.029 | Nexturastat A -0.041 | vemurafenib -0.017 | [5] 0.008 | [6] -0.046 | givinostat -0.022 | barasertib 0.011

IGF2R (UniProt P11717)
inactive: [1] -0.039 | [2] -0.016 | [3] 0.037 | [4] -0.004 | Nexturastat A 0.014 | vemurafenib -0.022 | [5] -0.007 | [6] -0.036 | givinostat -0.018 | barasertib 0.002

IGBP1 (UniProt P78318)
inactive: [1] 0.011 | [2] -0.05 | [3] 0.034 | [4] 0.039 | Nexturastat A -0.034 | vemurafenib 0.009 | [5] 0.092 | [6] -0.35 | givinostat 0.053 | barasertib 0.016

IDH3G (UniProt P51553)
inactive: [1] -0.008 | [2] -0.004 | [3] -0.013 | [4] 0.026 | Nexturastat A -0.072 | vemurafenib 0.013 | [5] 0.029 | [6] -0.054 | givinostat -0.012 | barasertib 0.037

IDI1 isoform 2 (UniProt Q13907)
inactive: [1] -0.017 | [2] -0.007 | [3] -0.015 | [4] 0.003 | Nexturastat A -0.082 | vemurafenib 0.005 | [5] -0.029 | [6] -0.185 | givinostat -0.219 | barasertib 0.024

IKBKG isoform 2 (UniProt Q9Y6K9)
inactive: [1] -0.006 | [2] 0.026 | [3] -0.008 | [4] -0.011 | Nexturastat A -0.019 | vemurafenib -0.013 | [5] -0.051 | [6] 0.008 | givinostat 0.004 | barasertib -0.017

IGF2BP3 (UniProt O00425)
inactive: [1] 0.077 | [2] -0.004 | [3] 0.055 | [4] -0.147 | Nexturastat A 0.427 | vemurafenib 0.03 | [5] 0.189 | [6] 0.269 | givinostat 0.113 | barasertib -0.007

Copied from above (2 entries):
IDH3G (UniProt P51553)
inactive: [1] -0.008 | [2] -0.004 | [3] -0.013 | [4] 0.026 | Nexturastat A -0.072 | vemurafenib 0.013 | [5] 0.029 | [6] -0.054 | givinostat -0.012 | barasertib 0.037

IDI1 isoform 2 (UniProt Q13907)
inactive: [1] -0.017 | [2] -0.007 | [3] -0.015 | [4] 0.003 | Nexturastat A -0.082 | vemurafenib 0.005 | [5] -0.029 | [6] -0.185 | givinostat -0.219 | barasertib 0.024

Remaining list, next part:

IQGAP2 (UniProt Q13576)
inactive: [1] 0.048 | [2] -0.053 | [3] 0.13 | [4] -0.022 | Nexturastat A 0.198 | vemurafenib 0.043 | [5] 0.097 | [6] 0.081 | givinostat 0.178 | barasertib 0.112

IPO11 isoform 2 (UniProt Q9UI26)
inactive: [1] 0.028 | [2] 0.004 | [3] 0.024 | [4] 0.047 | Nexturastat A -0.002 | vemurafenib 0.052 | [5] 0.082 | [6] -0.031 | givinostat -0.031 | barasertib 0.014

IMMT isoform 4 (UniProt Q16891)
inactive: [1] 0.009 | [2] 0.012 | [3] 0.032 | [4] 0.032 | Nexturastat A -0.027 | vemurafenib -0.007 | [5] 0.002 | [6] -0.045 | givinostat -0.022 | barasertib 0.001

IKBIP isoform 4 (UniProt Q70UQ0)
inactive: [1] -0.059 | [2] 0.001 | [3] -0.021 | [4] -0.021 | Nexturastat A 0.021 | vemurafenib -0.008 | [5] -0.026 | [6] 0.006 | givinostat -0.074 | barasertib 0.001

IMMP1L (UniProt Q96LU5)
inactive: [1] 0.003 | [2] 0.067 | [3] 0.008 | [4] -0.029 | Nexturastat A -0.085 | vemurafenib -0.055 | [5] -0.031 | [6] 0.273 | givinostat -0.048 | barasertib -0.024

IDH3A (UniProt P50213)
inactive: [1] -0.029 | [2] -0.003 | [3] 0.031 | [4] 0.015 | Nexturastat A -0.084 | vemurafenib 0.009 | [5] -0.009 | [6] -0.014 | givinostat -0.06 | barasertib -0.006

IREB2 (UniProt P48200)
inactive: [1] 0.016 | [2] -0.013 | [3] 0.009 | [4] -0.015 | Nexturastat A 0.245 | vemurafenib 0.027 | [5] 0.053 | [6] 0.078 | givinostat -0.04 | barasertib 0.023

ITCH (UniProt Q96J02)
inactive: [1] 0.015 | [2] -0.031 | [3] 0 | [4] -0.009 | Nexturastat A 0.067 | vemurafenib 0.051 | [5] 0.031 | [6] 0.041 | givinostat 0.052 | barasertib 0.046

IQGAP1 (UniProt P46940)
inactive: [1] -0.003 | [2] -0.027 | [3] 0.006 | [4] 0.052 | Nexturastat A -0.004 | vemurafenib 0.045 | [5] 0.033 | [6] 0.032 | givinostat 0.021 | barasertib 0.047

ITIH3 (UniProt Q06033)
inactive: [1] -0.124 | [2] 0.335 | [3] 0.004 | [4] 0.163 | Nexturastat A 0.043 | vemurafenib 0.158 | [5] -0.13 | [6] -0.217 | givinostat -0.119 | barasertib 0.003
